Source: paper PMC3514159
These are yes or no findings as the source states them, for the method shown. For some of these results: Binding seen in cells or lysates may run through a third protein. Some results given as binding are weak or reduced against the parent protein; the word gives no strength.

Amino acid sequences for entries named in this document (tags omitted).
UniProt Q8WUM4: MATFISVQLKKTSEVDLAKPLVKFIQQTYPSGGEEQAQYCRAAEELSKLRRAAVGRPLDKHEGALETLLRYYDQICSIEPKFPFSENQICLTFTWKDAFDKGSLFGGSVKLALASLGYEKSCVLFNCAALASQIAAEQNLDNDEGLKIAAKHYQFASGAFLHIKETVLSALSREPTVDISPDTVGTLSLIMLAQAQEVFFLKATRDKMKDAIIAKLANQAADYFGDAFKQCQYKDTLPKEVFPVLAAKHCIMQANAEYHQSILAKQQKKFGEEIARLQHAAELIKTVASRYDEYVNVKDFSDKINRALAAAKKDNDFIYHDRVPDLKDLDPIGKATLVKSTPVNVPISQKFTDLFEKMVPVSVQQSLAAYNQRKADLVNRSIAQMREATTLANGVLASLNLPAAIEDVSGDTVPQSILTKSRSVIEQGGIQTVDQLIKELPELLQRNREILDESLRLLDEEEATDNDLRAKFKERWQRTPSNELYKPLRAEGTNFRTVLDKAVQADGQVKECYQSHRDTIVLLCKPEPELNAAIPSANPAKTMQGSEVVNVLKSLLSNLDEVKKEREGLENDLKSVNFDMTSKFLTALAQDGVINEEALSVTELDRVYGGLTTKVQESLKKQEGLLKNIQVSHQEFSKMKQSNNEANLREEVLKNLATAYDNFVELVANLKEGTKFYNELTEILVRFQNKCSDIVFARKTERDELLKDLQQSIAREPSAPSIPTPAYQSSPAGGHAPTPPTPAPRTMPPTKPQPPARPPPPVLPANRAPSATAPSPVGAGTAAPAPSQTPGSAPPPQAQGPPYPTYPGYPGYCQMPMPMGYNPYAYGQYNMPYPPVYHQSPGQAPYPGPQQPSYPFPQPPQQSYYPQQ
UniProt Q9NR12: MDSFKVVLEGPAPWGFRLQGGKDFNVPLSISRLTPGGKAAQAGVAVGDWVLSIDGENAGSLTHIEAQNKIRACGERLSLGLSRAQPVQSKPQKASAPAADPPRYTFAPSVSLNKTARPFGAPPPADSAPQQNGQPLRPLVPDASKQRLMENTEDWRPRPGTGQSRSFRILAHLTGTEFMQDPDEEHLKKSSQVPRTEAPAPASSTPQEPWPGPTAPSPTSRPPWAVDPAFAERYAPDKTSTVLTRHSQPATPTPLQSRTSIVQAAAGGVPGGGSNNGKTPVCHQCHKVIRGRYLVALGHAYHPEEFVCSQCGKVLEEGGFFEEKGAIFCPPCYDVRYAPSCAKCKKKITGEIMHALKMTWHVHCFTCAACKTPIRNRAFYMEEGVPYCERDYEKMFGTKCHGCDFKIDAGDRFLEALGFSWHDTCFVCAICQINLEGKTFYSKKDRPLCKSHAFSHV
UniProt Q9UKS7: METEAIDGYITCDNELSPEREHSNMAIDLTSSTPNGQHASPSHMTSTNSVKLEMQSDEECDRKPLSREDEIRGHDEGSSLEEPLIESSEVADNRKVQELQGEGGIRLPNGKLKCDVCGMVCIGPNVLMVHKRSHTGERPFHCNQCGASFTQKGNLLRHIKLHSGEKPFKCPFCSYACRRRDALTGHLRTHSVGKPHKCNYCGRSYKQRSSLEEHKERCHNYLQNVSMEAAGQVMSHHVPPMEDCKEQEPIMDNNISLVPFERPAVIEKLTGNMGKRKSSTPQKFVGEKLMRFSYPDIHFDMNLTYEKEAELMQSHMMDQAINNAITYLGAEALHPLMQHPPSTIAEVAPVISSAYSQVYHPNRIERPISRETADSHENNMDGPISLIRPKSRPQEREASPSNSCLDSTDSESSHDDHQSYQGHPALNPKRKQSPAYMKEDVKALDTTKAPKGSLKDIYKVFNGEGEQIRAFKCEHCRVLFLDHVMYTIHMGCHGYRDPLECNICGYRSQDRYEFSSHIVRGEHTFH
UniProt P09022: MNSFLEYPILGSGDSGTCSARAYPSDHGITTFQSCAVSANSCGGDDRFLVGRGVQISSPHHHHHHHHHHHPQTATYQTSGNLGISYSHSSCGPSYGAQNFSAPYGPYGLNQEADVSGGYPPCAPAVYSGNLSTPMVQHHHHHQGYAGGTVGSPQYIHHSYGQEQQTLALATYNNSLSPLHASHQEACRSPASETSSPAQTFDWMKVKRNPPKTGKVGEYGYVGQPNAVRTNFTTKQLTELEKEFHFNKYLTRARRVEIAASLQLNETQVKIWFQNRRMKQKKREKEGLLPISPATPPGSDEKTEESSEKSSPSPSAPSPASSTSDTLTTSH

Experiments:
[1] = biological target: T1, TNF receptor-associated factor 2 (human) (UniProt Q12933); assay: pull-down; GST-hORF and FLAG-Hoxa1 co-expressed in COS7 or HEK293T; cleared lysate (Tris-HCl pH7.5 20mM, NaCl 120mM, EDTA 0.5mM, NP40 0.5%, glycerol 10%) overnight on glutathione-agarose beads, 3 washes; anti-FLAG western blot
T1 sequence: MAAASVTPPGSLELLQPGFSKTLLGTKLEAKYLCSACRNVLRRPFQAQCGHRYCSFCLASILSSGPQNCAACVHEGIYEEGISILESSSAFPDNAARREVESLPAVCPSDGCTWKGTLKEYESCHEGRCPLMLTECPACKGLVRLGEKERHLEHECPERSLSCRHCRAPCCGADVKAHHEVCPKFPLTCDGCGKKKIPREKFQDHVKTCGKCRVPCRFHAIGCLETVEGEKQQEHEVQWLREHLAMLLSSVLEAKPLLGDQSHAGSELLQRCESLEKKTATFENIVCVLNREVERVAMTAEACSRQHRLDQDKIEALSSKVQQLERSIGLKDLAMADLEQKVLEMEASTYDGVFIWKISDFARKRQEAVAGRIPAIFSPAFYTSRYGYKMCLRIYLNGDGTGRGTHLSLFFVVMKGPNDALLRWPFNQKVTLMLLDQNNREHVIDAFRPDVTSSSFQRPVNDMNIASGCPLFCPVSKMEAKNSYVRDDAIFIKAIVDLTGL

[2] = biological target: programmed cell death 6 interacting protein (human) (UniProt Q8WUM4); assay: as above
[3] = biological target: T2, regulator of G-protein signaling 20 (human) (UniProt O76081); assay: as above
T2 sequence: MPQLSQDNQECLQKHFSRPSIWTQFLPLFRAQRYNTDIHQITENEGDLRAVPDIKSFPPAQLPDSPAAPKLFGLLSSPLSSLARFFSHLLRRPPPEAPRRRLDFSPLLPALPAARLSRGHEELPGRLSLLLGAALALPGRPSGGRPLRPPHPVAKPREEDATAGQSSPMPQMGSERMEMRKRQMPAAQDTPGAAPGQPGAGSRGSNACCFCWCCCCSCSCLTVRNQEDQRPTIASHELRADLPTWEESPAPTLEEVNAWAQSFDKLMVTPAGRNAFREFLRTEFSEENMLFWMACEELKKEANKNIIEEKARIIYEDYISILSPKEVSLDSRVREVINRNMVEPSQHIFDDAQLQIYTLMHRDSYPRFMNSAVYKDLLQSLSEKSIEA

[4] = biological target: T3, family with sequence similarity 154, member A (human) (UniProt Q8IYX7); assay: as above
T3 sequence: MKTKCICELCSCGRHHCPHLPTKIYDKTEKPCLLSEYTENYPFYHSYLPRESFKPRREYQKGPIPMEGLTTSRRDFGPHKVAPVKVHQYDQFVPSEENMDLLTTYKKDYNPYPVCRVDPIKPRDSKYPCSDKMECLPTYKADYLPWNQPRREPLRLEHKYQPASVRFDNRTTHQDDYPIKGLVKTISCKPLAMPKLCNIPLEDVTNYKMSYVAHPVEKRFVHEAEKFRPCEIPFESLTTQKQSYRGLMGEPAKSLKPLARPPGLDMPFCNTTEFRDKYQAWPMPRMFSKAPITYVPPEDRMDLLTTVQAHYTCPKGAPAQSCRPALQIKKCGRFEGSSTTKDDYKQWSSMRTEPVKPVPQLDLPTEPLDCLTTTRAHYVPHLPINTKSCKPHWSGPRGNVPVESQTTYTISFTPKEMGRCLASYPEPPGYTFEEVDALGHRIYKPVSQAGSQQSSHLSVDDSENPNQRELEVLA

[5] = biological target: PDZ and LIM domain 7 (human) (UniProt Q9NR12); assay: as above
keratin 81 (human) = biological target: T4, keratin 81 (human) (UniProt Q14533); assay: two-hybrid; AD-Hoxa1 (Gal4 activation domain) in MATa Y8800 mated with the DB-hORF library in MATα Y8930; 30°C; selection on Sc-L-T-H + 1 mM 3AT, retest on Sc-L-T-H, Sc-L-T-A and Sc-L-T-H-A+3AT
T4 sequence: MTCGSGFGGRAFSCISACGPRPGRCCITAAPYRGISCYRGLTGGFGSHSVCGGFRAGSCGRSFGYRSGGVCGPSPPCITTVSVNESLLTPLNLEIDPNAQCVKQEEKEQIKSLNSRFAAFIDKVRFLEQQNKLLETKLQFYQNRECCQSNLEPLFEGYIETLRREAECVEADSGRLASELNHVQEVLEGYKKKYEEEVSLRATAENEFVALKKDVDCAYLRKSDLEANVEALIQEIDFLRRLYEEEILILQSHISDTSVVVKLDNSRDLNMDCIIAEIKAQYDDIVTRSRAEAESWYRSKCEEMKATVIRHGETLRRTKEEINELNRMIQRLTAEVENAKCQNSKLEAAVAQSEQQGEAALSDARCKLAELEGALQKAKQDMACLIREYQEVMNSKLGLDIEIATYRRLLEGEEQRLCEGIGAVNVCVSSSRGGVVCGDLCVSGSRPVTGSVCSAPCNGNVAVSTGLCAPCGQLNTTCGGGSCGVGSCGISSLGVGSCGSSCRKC

[6] = biological target: IKAROS family zinc finger 2 (human) (UniProt Q9UKS7); assay: as above

Measured: binding

FLAG-Hoxa1 (from UniProt P09022 1-331)
not listed: keratin 81 (human) | [6]
binds: all other assays above

Hoxa1 (from UniProt P09022 1-331)
binds: keratin 81 (human) | [6]
